Test results published in US20230374087A1, “METHOD TO IMPROVE PROTEIN QUALITY CONTROL” (The Johns Hopkins University, priority 2020, published 2023).

Assay: Cycloheximide (CHX) chase assay of CHIP protein half-life
Assay type: cell-based, rat
Details: cycloheximide 100 μM, hydrogen peroxide 50 μM

B1: CHIP: endogenous CHIP protein in myocytes expressing only a Myc vector (protein)
chain: MKGKEEKEGGARLGTGGGGSPDKSPSAQELKEQGNRLFVGRKYPEAAACYGRAITRNPLVAVYYTNRALCYLKMQQPEQALADCRRALELDGQSVKAHFFLGQCQLEMESYDEAIANLQRAYSLAKEQRLNFGDDIPSALRIAKKKRWNSIEERRIHQESELHSYLTRLIAAERERELEECQRNHEGHEDDGHIRAQQACIEAKHDKYMADMDELFSQVDEKRKKRDIPDYLCGKISFELMREPCITPSGITYDRKDIEEHLQRVGHFDPVTRSPLTQEQLIPNLAMKEVIDAFISENGWVEDY
- CHIP protein half-life (PKG activity blocked by PDE5oe): ~2 h
- CHIP protein half-life (myocytes expressing only a Myc vector): ~6 h
